Measurements published in patent publication US8623429B2, “Stabilized anthocyanin compositions” (Omnica GmbH, priority 2007, dated 2014).
At least one compound was matched to its structure with a doubt left.

Tested on: CaCo-2 cells
Assay: CaCo-2 test: cellular uptake of black currant lead-anthocyanosides in presence of glutathione
Type: in vitro ADME
Conditions: 120 mg black currant extract and 30 mg glutathione/100 ml medium, 37° C., 60 minutes

**Q.** Which “recovery in CaCo-2 cells, % of the concentration determined in the supernatant incubation medium” value does the source give for `C[C@@H]1O[C@@H](OC[C@H]2O[C@@H](Oc3cc4c(O)cc(O)cc4[o+]c3-c3ccc(O)c(O)c3)[C@H](O)[C@@H](O)[C@@H]2O)[C@H](O)[C@H](O)[C@H]1O` [Cn-3-O-Rut, Cyanidin-3-O-rutinoside] here?
**A.** The value was 2.5%.
